{"source": "PubChem BioAssay AID504804 (Drosophila RNAi Screening Center, 2011)", "screen": "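dsRNAs that improve Kc cell survival under doxorubicin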 (primary screen)", "cell system": "Drosophila Kc cells", "reagent": "long dsRNA against Drosophila genes, 0.5 µg dsRNA per well", "time to read-out": "96 h (48 h knock-down, then 48 h drug)", "challenge": "doxorubicin 5 µg/ml for 48 h, added 48 h after dsRNA", "measured": "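Viability measured as cellular ATP by luminescence after 48 h knock-down then 48 h doxorubicin at 5 µg/ml; unnormalised plate counts for each replicate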", "reading the numbers": "raw ATP luminescence: higher = more viable cells, protection from doxorubicin", "hit rule": "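z-score of 2 or more over plate mean in both duplicates, retained only when retests and separate dsRNAs confirm the protection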", "note": "The screen tested about 19,000 reagents; this is an unselected part of those with a known target gene and a result. In the full data, 47 (0.25%) got an active call. 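Signals are raw, not normalised; exact z-scores behind calls not deposited; actives needed confirmation, so some wells reaching 2 SD are inactive.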 A number with no mark means an inactive call. No sequences are given here."}
{"predicted target":"Shal","DRSC id":"DRSC09625","raw ATP luminescence, replicate 1":72053,"raw ATP luminescence, replicate 2":61057}
{"predicted target":"Shal","DRSC id":"DRSC11283","raw ATP luminescence, replicate 1":69747,"raw ATP luminescence, replicate 2":72140}
{"predicted target":"ND-B18","DRSC id":"DRSC19947","raw ATP luminescence, replicate 1":3.51e5,"raw ATP luminescence, replicate 2":2.83e5}
{"predicted target":"Cyp6a14 (retired record)","DRSC id":"DRSC07376","raw ATP luminescence, replicate 1":39167,"raw ATP luminescence, replicate 2":84443}
{"predicted target":"Tudor-SN","DRSC id":"DRSC08581","raw ATP luminescence, replicate 1":61877,"raw ATP luminescence, replicate 2":48740}

2 of these entries, reformatted:
predicted target	DRSC id	raw ATP luminescence, replicate 1	raw ATP luminescence, replicate 2
Shal	DRSC09625	72053	61057
Shal	DRSC11283	69747	72140

Further records follow:
{"predicted target":"Daao1","DRSC id":"DRSC06131","raw ATP luminescence, replicate 1":34780,"raw ATP luminescence, replicate 2":68963}
{"predicted target":"Golgin245","DRSC id":"DRSC04374","raw ATP luminescence, replicate 1":67897,"raw ATP luminescence, replicate 2":58417}
{"predicted target":"CG31638","DRSC id":"DRSC02269","raw ATP luminescence, replicate 1":23253,"raw ATP luminescence, replicate 2":21017}
{"predicted target":"CG31638","DRSC id":"DRSC03259","raw ATP luminescence, replicate 1":22793,"raw ATP luminescence, replicate 2":28503}
{"predicted target":"CG15696","DRSC id":"DRSC15118","raw ATP luminescence, replicate 1":60300,"raw ATP luminescence, replicate 2":58900}
{"predicted target":"Rap2l","DRSC id":"DRSC04646","raw ATP luminescence, replicate 1":79617,"raw ATP luminescence, replicate 2":64910}
{"predicted target":"CG9044","DRSC id":"DRSC03130","raw ATP luminescence, replicate 1":1.12e5,"raw ATP luminescence, replicate 2":79737}
